# Measurements published in PubChem BioAssay AID624297 (National Center for Advancing Translational Sciences (NCATS), 2012).
# About 6,200 (1.8%) of roughly 340,000 compounds were called active. Inconclusive means that the source gave no clear call. Such entries were picked first, then a sample of the others. Calls follow the shape of the dose curve; as a rule, active = well fitted activation curve with a large enough effect; inconclusive = small, poorly fitted or top-dose-only effect; inactive = no such curve, though single readings can be large or run the other way. Potencies of inconclusive entries are doubtful fits and often do not repeat.
# Assay: A quantitative high throughput screen for small molecules that induce DNA re-replication in SW480 colon adenocarcinoma cells. Also: nearly all actives have a fitted effect of over 55% in size.
# Details: Hoechst DNA content imaging, 48 h; series mostly up to 46.1 µM
# Outline: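 DNA re-replication was detected as more nuclei of elevated Hoechst intensity after 48 hr exposure to compound (23 nL pinned per well of 250 cells).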
# Potency is read from the fitted curve at half-maximal effect.
row,Compound,Potency
1,COc1ccc(-c2n[nH]c(=S)n2/N=C/C=C/c2ccccc2OC)cc1,"inconclusive: 6.51 µM [activator, single point]"
2,COc1ccccc1/C=C/C(=O)OCC(=O)Nc1ccc(Cl)cn1,"inconclusive: 29.1 µM [activator, single point]"
3,CCOC(=O)c1[nH]c2ccc(OC)cc2c1NC(=O)CCN1CCSCC1,"inconclusive: 32.6 µM [activator, partial curve, poor fit]"
4,CCOC(=O)N1CCN(C(=O)c2cc(COc3ccc4ncccc4c3)on2)CC1,inactive
5,N#Cc1ccc(Oc2nc(C(N)=O)cc(-c3ccccc3)n2)cc1,inactive
6,N/C(=N\c1nc2ccccc2o1)NC(=O)c1cccc(Cl)c1,active: 4.11 µM
7,CC(C)CC(c1nnnn1CCc1ccccc1)N1CCN(C(=O)c2ccco2)CC1 (stereo not drawn),"inconclusive: 16.4 µM [activator, single point]"
8,CC(C)(C)n1ncc2c(=O)n(CC(=O)NCc3ccc(F)cc3)cnc21,"inconclusive: 2.91 µM [activator, single point]"
9,O=C(O)c1ccccc1/C=N/Nc1ccc(S(=O)(=O)Nc2ccc(Cl)cc2)cc1[N+](=O)[O-],"inconclusive: 1.84 µM [activator, partial curve]"
10,C[n+]1c2n(c3ccccc31)N=C(c1cc(C(C)(C)C)c(O)c(C(C)(C)C)c1)CS2,"inconclusive: 29.1 µM [activator, single point]"
11,Cc1cc(C(=O)Nc2ccc(Br)cc2)cs1,inactive
12,CCOc1ccc(C(=O)NCC(=O)Nc2cc(C)ccn2)cc1OCC,"inconclusive: 25.9 µM [activator, single point]"
13,Cc1nc2ccccn2c1C(=O)N/N=C/c1ccc([N+](=O)[O-])o1,"inconclusive: 29.1 µM [activator, single point]"
14,CCCCNC(=S)N1CCn2cccc2C1c1ccccc1 (stereo not drawn),"inconclusive: 29.1 µM [activator, single point]"
15,CCCc1cc(C(=O)N2CCCC(Nc3ccc(C)c(C)c3)C2)n(C)n1 (stereo not drawn),"inconclusive: 29.1 µM [activator, single point]"
16,CSC1=C(C#N)C2(CCCCC2)C(C(=O)Nc2ccccc2)=C(C)N1,"inconclusive: 18.4 µM [activator, partial curve, poor fit]"
17,COc1ccc(C(NC(=O)c2cc(OC)ccc2OC)c2ccccc2)cc1 (stereo not drawn),"inconclusive: 23.1 µM [activator, single point]"
18,CC1CCc2c(sc3ncnc(NCCN4CCOCC4)c23)C1 (stereo not drawn),inactive
19,CC(C)c1nnc(NC(=O)CCS(=O)(=O)Cc2ccccc2)s1,inactive
20,CCOC(=O)C1=C(C)NC(C)=C(C(=O)OCC)C1C(=O)OCC(=O)NC1CCCCC1,"inconclusive: 25.9 µM [activator, partial curve, poor fit]"
21,CC(=O)Nc1ccc(S(=O)(=O)Nc2c(NC3CCCCC3)c3ccccc3oc2=O)cc1,inactive
22,CCCCN(CC(O)COc1cccc(C)c1)CC(O)COc1cccc(C)c1 (stereo not drawn),"inconclusive: 29.1 µM [activator, partial curve, poor fit]"

row,Compound,Potency
1,Cc1cc(N(CCO)CCO)nc(-n2nc(C)cc2C)n1,inactive
2,Oc1[nH]c2ccccc2c1N=NC(=S)N1CCOCC1,"inconclusive: 2.06 µM [activator, full curve]"
3,CS(=O)(=O)c1ccc(C(=O)OCC(=O)Nc2cccnc2Cl)cc1[N+](=O)[O-],"inconclusive: 0.731 µM [activator, partial curve, poor fit]"
4,c1ccc(Nc2ccnc(Nc3ccccc3)n2)cc1,"inconclusive: 3.66 µM [activator, partial curve, poor fit]"
5,CC(C)OP(=O)(c1ccc(N(C)C)cc1)C(Nc1ccccc1)c1ccccc1 (stereo not drawn),"inconclusive: 4.61 µM [activator, full curve, poor fit]"
6,C=CCn1c(C)cc(-c2csc(NC)n2)c1C,inactive
7,CS(=O)(=O)Nc1cccc(C2=NN(C(=O)c3ccco3)C(c3ccco3)C2)c1 (stereo not drawn),"inconclusive: 29.1 µM [activator, single point]"
8,COc1cccc(CNC(=O)c2ccc(CS(=O)(=O)Cc3ccccc3C)o2)c1,"inconclusive: 0.0046 µM [activator, full curve, poor fit]"
9,COc1cc(/C=N/n2c(COc3ccccc3)n[nH]c2=S)cc(OC)c1OC(C)=O,inactive
10,COc1cc(C(=O)N2CCN(S(=O)(=O)c3ccc(C(C)C)cc3)CC2)ccc1OCC(=O)N1CCOCC1,inactive
11,CC(=O)Cc1nsc(NC(=O)c2cc(-c3cccc(C(F)(F)F)c3)oc2C)n1,"inconclusive: 6.31 µM [activator, partial curve, poor fit]"
12,Cc1ccc(CN2CCN(Cc3ccc(-n4cccn4)cc3C)CC2CCO)cc1 (stereo not drawn),"inconclusive: 18.4 µM [activator, single point]"
13,Cc1cc(O)c(N=Cc2cc3c(cc2[N+](=O)[O-])OCO3)cc1C,"inconclusive: 20.6 µM [activator, single point]"
14,CCOc1ccccc1C=NNc1ccc([N+](=O)[O-])cn1,"inconclusive: 6.51 µM [activator, partial curve, poor fit]"
15,COc1ccc(C)cc1NC(=O)CCC(=O)Nc1ccc2nc(N3CCN(C)CC3)cc(C)c2c1,"inconclusive: 29.1 µM [activator, single point]"
16,COc1ccc(C(=O)NCc2cccnc2)cc1C(=O)NCc1cccnc1,inactive
17,Cc1cccc(NC(=S)N2CCN(c3ccccc3F)CC2)c1C,"inconclusive: 29.1 µM [activator, single point]"
18,CCOC(=O)c1cccc(NC(=O)/C=C/c2ccc3c(c2)OCO3)c1,inactive
19,CCCN(c1ccc(OCC)cc1)c1ncnc2nc[nH]c12,inactive
20,COc1ccccc1CCN=C(N)NS(=O)(=O)c1ccc(F)cc1,"inconclusive: 29.1 µM [activator, partial curve, poor fit]"
21,O=C(Nc1ccc([N+](=O)[O-])cc1)Nc1ccc2c(c1)OCCO2,"inconclusive: 14.6 µM [activator, single point]"

# Among those listed so far, these contain a thiophene ring, fused or not:
row,Compound,Potency
11,Cc1cc(C(=O)Nc2ccc(Br)cc2)cs1,inactive
18,CC1CCc2c(sc3ncnc(NCCN4CCOCC4)c23)C1 (stereo not drawn),inactive
